# Test results from US20200138969A1 (published 2020).
# The chains behind the UniProt entries cited, without tags or fusion partners. Where a name states a change or a piece, a line headed by the entry shows the natural chain unless it says otherwise.
# UniProt Q9NYJ7: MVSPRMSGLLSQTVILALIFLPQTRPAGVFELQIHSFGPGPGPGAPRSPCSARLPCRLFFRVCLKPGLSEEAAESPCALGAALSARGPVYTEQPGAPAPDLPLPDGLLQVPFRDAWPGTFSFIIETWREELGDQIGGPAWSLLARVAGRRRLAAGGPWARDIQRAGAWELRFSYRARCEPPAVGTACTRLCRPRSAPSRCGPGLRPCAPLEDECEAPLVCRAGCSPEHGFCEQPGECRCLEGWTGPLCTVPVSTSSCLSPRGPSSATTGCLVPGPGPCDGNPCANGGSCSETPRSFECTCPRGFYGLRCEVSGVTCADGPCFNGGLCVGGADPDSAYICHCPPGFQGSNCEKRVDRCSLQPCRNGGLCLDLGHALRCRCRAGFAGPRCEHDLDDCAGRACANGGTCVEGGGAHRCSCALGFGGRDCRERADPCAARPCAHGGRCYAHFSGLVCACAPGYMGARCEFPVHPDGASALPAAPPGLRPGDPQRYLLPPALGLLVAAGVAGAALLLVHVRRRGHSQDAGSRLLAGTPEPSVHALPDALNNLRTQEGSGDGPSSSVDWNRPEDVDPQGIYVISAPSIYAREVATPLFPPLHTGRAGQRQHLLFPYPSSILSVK
# No constants are given. Whether binding was seen depends on the method and setting. Some binding calls cover weakened binding; strength is not graded here.
# Target: human DLL3 (delta-like ligand 3), on the cell surface (human) (UniProt Q9NYJ7)
# Assay: hybridoma screen: ELISA on immobilized DLL3 or flow cytometry on h293-hDLL3
row,Binder,binding
1,"SC16.121 (antibody, V domains shown) VH: EVQLVESGGGLVQPKGSLKLSCAASGFTFNTYAMNWVRQAPGKGLEWVARIRIKSNNYATYYADSVKDRFTISRDDSQNMLYLQMNNLKTEDTAVYYCVRQGYSYDWGPWFAYWGQGTLVTVSA VL: QIVLTQSPAIMSASPGEKVTITCSASSSVSYMHWFQQKPGTSPKLWIYSTSNLASGVPARFSGSGSGTSYSLTISRMEAEDAATYYCQQRSSYPPTFGGGTKLEIKR",binds
2,"SC16.123 (antibody, V domains shown) VH: QVALKESGPGILQPSQTLSLTCSFSGFSLSTSGMGVGWIRQPSGKGLEWLAHIWWDDVKRYNPALKSRLTISKDTSSSQVFLKIASVDTADTATYYCARMEDYGSSSYFDFWGHGTTLTVSS VL: QIVLTQSPAIMSASLGERVTMTCTASSSVSSSYLHWYQQKPGSSPKLWIYSTSNLASGVPARFSGSGSGTSYSLTISSMETEDAATYYCHQYHRSPFTFGSGTKLEIK",binds
3,"SC16.124 (antibody, V domains shown) VH: EVQLQQSGPELVKPGASVKMSCKASGYTFTSYVMHWVKQKPGQGLEWIGYINPYNDGTKYNEKFKGKATLTSDKSSSTAYMELSSLTSEDSAVYYCARGALYYGNYLGYFDVWGAGTTVTVSS VL: DIQMTQSPASQSASLGESVTITCLASQTIGTWLAWYQQKPGKSPQLLISAATSLADGVPSRFSGSGSGTKFSFKISSLQAEDFVSYYCQQLYSTPWTFGGGTKLEIK",binds
4,"SC16.125 (antibody, V domains shown) VH: DVQLQESGPDLVKPSQSLSLTCTVTGYSITSGYSWHWIRQFPGNKLEWMGYIHYSGSTNYNPSLKSRISITRDTSKNQFFLQFKSVTTEDSATYYCALEGNYDGFAYWGQGTLVTVS VL: DIQMNQSPSSLSASLGDTITITCHASQNINVWLSWYQQKPGNIPKLLIYKASILHTGVPSRFSGSGSGTGFTLTISSLQPEDIATYSCQQGQSYPYTFGGGTKLEIK",binds
5,"SC16.126 (antibody, V domains shown) VH: QVQMKESGPGLVAPSQSLSITCTVSGSSLTNYGVHWVRQPPGKGLEWLGVIWAGGSTNYNSALMSRLSISKDNSKSQVFLKMNSLQTDDTAMYYCARDWEGWFAYWGQGTLVTVSA VL: DIQMNQSPSSLSASLGDTITITCHASQNINVWLSWYQQKPGNIPKLLIYKASNLHTGVPSRFSGSGSGTGFTLTISSLQPEDIATYYCQQGQSYPFTFGSGTKLEIK",binds
6,"SC16.130 (antibody, V domains shown) VH: EVQLQQSGPELVKPGASVKMSCKASGYTFTSYVMHWVKQKPGQGLEWIGYINPYNDGTEYNEKFKGKATLTSDKSSSTAYMELSSLTSEDSAVYYCARGVYDGYSYFDYWGQGTTLTVSS VL: DIQLTQSPASLSASVGETVTITCRASGSIHNYLAWYQQKQGKSPQLLVYNAKTLVDGVPSRFSGSGSGTQYSLKINSLQPEDFGYYYCQHFWTTPWTFGGGTKLEIK",binds
7,"SC16.132 (antibody, V domains shown) VH: QVQLKESGPGLVAPSQSLSITCTVSGFSLTDYGVSWIRQPPGKGLEWLGVVWGGGSTYYNSALKSRLSITKDNSKSQVFLKMNSLQTDDTAMYYCAKQRGQYGAYWGQGTLVTVSA VL: DIQMTQSPASQSASLGESVTITCLASQTIGTWLAWYQQKPGKSPQLLIYAATSLADGVPSRFSGSGSGTKFSFKISSLQAEDFVSYYCQQLYSTPWTFGGGTKLEIK",binds
